PMC7260363
No constants are given. Whether binding was seen depends on the method and setting. Binding seen in cells or lysates may run through a third protein. Some entries that bind do so weakly or less than the wild type.

By UniProt entry, the sequences of proteins in these tests, tags left out. Where a name states a change or a piece, a line headed by the entry shows the natural chain unless it says otherwise.
UniProt P08588: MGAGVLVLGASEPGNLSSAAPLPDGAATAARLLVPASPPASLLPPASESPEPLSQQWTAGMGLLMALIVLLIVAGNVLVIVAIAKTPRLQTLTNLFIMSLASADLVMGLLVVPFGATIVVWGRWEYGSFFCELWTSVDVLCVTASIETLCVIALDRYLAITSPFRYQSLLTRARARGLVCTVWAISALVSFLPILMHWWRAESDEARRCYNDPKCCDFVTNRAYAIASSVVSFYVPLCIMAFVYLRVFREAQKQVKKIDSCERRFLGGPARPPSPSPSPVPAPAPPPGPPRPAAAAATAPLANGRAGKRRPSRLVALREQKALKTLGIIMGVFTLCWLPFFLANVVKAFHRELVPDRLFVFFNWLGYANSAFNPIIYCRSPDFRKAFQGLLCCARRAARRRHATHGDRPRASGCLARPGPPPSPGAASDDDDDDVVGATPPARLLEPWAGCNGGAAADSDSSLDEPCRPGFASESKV
UniProt P62873: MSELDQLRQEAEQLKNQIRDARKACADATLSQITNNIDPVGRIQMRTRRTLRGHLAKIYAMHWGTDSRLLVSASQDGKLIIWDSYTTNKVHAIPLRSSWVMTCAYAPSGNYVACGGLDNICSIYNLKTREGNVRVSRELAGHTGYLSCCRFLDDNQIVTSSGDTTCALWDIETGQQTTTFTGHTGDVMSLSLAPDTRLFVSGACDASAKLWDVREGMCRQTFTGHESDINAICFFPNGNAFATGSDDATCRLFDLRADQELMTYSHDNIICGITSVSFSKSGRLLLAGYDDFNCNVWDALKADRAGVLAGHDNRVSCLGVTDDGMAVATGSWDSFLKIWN
UniProt P32121: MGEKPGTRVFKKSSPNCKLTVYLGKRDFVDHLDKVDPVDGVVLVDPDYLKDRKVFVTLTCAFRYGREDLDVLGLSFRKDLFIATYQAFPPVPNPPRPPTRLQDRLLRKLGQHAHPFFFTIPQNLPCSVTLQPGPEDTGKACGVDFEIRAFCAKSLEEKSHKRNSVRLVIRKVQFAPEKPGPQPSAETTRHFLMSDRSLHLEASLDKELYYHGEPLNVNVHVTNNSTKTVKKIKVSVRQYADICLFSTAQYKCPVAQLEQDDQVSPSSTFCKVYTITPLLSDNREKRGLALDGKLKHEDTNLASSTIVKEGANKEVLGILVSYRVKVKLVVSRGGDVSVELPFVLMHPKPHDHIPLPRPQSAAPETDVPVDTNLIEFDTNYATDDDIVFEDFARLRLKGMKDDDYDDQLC
UniProt Q03113: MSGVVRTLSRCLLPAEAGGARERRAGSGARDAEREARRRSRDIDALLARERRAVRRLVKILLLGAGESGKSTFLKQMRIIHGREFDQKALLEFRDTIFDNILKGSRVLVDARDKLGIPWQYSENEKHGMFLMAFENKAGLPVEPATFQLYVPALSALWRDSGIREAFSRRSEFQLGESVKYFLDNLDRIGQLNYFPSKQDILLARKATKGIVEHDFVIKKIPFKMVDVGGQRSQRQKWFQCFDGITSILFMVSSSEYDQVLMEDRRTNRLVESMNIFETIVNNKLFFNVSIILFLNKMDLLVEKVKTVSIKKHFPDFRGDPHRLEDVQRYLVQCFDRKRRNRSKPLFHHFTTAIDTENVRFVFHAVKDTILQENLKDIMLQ

Key:
[1] = molecular target: β1-adrenergic receptor fused to GFP10 (β1AR-GFP10) (UniProt P08588); assay: condition: only with isoetharine, xamoterol or salmeterol as the ligand; FRET or BRET; as a3, but with isoetharine, xamoterol or salmeterol as the ligand
[2] = molecular target: β1-adrenergic receptor fused to GFP10 (β1AR-GFP10) (UniProt P08588); assay: FRET or BRET; living HEK 293 cells; hβarrestin2-RlucII donor, β1AR-GFP10 acceptor; isoproterenol, epinephrine, norepinephrine or indacaterol; BRET read 10 min after agonist
[3] = molecular target: Gβ1 (untagged) with GFP10-Gγ1 (UniProt P62873); assay: FRET or BRET; living HEK 293 cells (HA-β1AR stable line or transfected receptor: β1AR, β2AR, D2R, D4R or TPαR); Gα-Rluc donor, GFP10-Gγ1 acceptor, untagged Gβ1; titration, kinetic and concentration-response curves with or without agonist (1 μM isoproterenol); a decrease in BRET is read as separation of Gα from Gβγ; 37 °C, Tyrode's-HEPES or Kreb's/HEPES buffer pH 7.4

| binding [1] | binding [2] | binding [3] | Substance |
| --- | --- | --- | --- |
| no binding | binds |  | hβarrestin2-RlucII (from UniProt P32121 1-409) |
|  |  | binds | Gα12-84RlucII (from UniProt Q03113 1-381) |
